Data from PubChem BioAssay AID1956 (SRMLSC, 2009).
The list shows a part of the results. Some of these compounds have results that are not shown, active ones among them.

Test: compounds boosting herpes simplex virus growth – fold increase, host cell viability (AID 1956); note: tested in PC3 cells
Conditions: HSV replication augmentation in cells; fold increase: measured here: primary screen fold increase 10 uM, at 10 µM, stronger effect = higher value; viability: measured here: host cell viability series, at 25 µM, stronger effect = lower value

Compound	fold increase	viability [%]
COc1cccc(C(=O)NCC2(N3CCCCC3)CCCCC2)c1	0.95	–
COc1ccc(Br)c(C(=O)NCC2(N3CCCCC3)CCCCC2)c1	1.05	–
CN(C)c1cccc(C(=O)NCC2(N(C)C)CCCCC2)c1	0.92	–
O=C(OC1CN2CCC1CC2)C(CO)(c1ccccc1)c1ccccc1 (configuration not stated)	0.82	–
CC(C)N1C(=O)CC2(CCN(CCOC(=O)C(O)(c3ccccc3)c3ccccc3)CC2)C1=O	0.93	–
CCN(CC)CC(C)C(C)OC(=O)C(O)(c1ccccc1)c1ccccc1 (configuration not stated)	0.87	–
O=C(NCC1(N2CCCCC2)CCCCC1)c1cc([N+](=O)[O-])ccc1Cl	1.51	94.5
C=CCN1CCN(CCOC(=O)C(O)(c2ccccc2)c2ccccc2)CC1	0.99	–
CCN1CCCC(OC(=O)C2(O)c3ccccc3C=Cc3ccccc32)C1 (configuration not stated)	0.84	–
Cc1ccccc1C(=O)NCC1(N2CCCCC2)CCCCC1	1.14	–
CN(C)C1CCCC1OC(=O)C(O)(c1ccccc1)c1ccccc1 (configuration not stated)	1.07	–
